Assay results published in patent US20220332791A1 (ALIVEGEN, published 2022).
Results are given in words; binding and its absence hold for the method and conditions named. Some binding calls cover weakened binding; strength is not graded here. Sequences can lack the tags named with a protein.

What was measured:
[1] = target: T1, BMP9 (UniProt Q9UK05 320-429); test: automated ELISA on BMP9-coated beads (KinExA instrument), 100 pM, 1 nM and 10 nM; reference of the comparison
T1 sequence (looked up): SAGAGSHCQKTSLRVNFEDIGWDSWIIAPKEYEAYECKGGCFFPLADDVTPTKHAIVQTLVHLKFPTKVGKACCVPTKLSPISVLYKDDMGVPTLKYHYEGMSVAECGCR

[2] = target: T1, BMP9; test: KinExA
[3] = target: T2, activin A (UniProt P08476 311-426); test: KinExA
T2 sequence (looked up): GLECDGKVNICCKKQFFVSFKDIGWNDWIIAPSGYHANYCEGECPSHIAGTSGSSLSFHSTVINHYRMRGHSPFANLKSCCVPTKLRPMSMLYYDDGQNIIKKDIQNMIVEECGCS

[4] = target: T3, myostatin (UniProt O14793 267-375); test: KinExA
T3 sequence (looked up): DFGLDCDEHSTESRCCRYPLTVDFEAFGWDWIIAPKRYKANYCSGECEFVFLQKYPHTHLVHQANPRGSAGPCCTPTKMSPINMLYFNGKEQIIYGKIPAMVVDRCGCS

[5] = target: T1, BMP9; test: automated ELISA on KinExA: BMP9-coupled Sepharose beads, captured Fc fusion detected with Alexa Fluor 647 goat anti-human Fc

Measured: binding

B1: wild-type ActRIIB-ECD-Fc fusion protein (Fc fusion)
chain: ETRECIYYNANWELERTNQSGLERCEGEQDKRLHCYASWRNSSGTIELVKKGCWLDDFNCYDRQECVATEENPQVYFCCCEGNFCNERFTHLPEAGGPEVTYEPPPTAPTGGGGSESKYGPPCPPCP
notes: also called WT ActRIIB-Fc; WT; not shown: human Fc domain
binds: [1] | [2] | [3] | [4] | [5]

B2: hybrid ActRIIB ligand trap protein AG-0014 (SEQ ID NO: 16) (Fc fusion)
chain: ETRECIYYNANWELERTNQSGLERCYGDKDKRRHCYASWRNSSGTIELVKKGCWLDDFNCYDRQECVATEENPQVYFCCCEGNFCNERFTHLPEAGGPEVTYEPPPTAPTGGGGSESKYGPPCPPCP
notes: also called Hybrid Trap B; not shown: human Fc domain
binds: [3] | [4]

B3: hybrid ActRIIB ligand trap protein AG-0027 (SEQ ID NO: 29) (Fc fusion)
chain: ETRECIYYNANWELERTNQSGLERCEGDQDKRLHCYASWRNSSGTIELVKKGCWLDDINCYDRQECVATKENPQVYFCCCEGNFCNERFTHLPEAGGPEVTYEPPPTAPTGGGGSESKYGPPCPPCP
notes: also called Hybrid Trap A; Hybrid Trap; not shown: human Fc domain
binds: [3] | [4]
